Test results from the supplement of paper PMC12282887.
± gives the standard deviation of the averaged measurements. These are raw signals, not scaled to a control.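 For antimicrobials the highest concentration approximated the MIC. Most other compounds topped out at 500 µM, and known inducer-like compounds reached up to 1 mM. Inocula for deletion strains were tenfold smaller, and any well growing below 10% of the overall median was considered non-growing.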

Tested on: Escherichia coli BW25113
Test: growth (OD600 area under curve, 8 h) (OD600 x h); higher = more growth
Protocol: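 E. coli BW25113 reporter strains (wild type, ΔmarA, ΔsoxS, Δrob, each carrying one of 8 lux reporter plasmids) were grown in 40 µl LB in 384-well plates at 37°C, 800 rpm, with each compound at 4 two-fold concentrations, in biological duplicates. Growth is the baseline-corrected OD600 area under the curve over 8 h (0-8 h WT, 1-9 h deletion strains).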

O=C1CN(/N=C/c2ccc([N+](=O)[O-])o2)C(=O)N1 [Nitrofurantoin]
growth
Conditions	reporter plasmid: EVC	reporter plasmid: acrABp	reporter plasmid: marRABp	reporter plasmid: micFp	reporter plasmid: ompFp	reporter plasmid: robp	reporter plasmid: soxSp	reporter plasmid: tolCp
0.45 µg/ml, genetic background: wild type	2.98 ± 0.35	2.96 ± 0.26	2.9 ± 0.056	3.17 ± 0.37	2.86 ± 0.25	2.91 ± 0.35	3.05 ± 0.11	2.95 ± 0.12
0.45 µg/ml, genetic background: ΔmarA	3.13 ± 0.35	3.52 ± 0.33	3.44 ± 0.13	3.06 ± 0.59	2.96 ± 0.28	3.22 ± 0.19	2.92 ± 0.32	2.91 ± 0.23
0.45 µg/ml, genetic background: Δrob	2.84 ± 0.49	2.41 ± 0.032	3.08 ± 0.62	3.17 ± 0.33	2.34 ± 0.19	2.47 ± 0.4	2.95 ± 0.39	3.3 ± 0.3
0.45 µg/ml, genetic background: ΔsoxS	3.15 ± 0.24	3.09 ± 0.53	2.88 ± 0.62	2.86 ± 0.2	2.64 ± 0.18	2.7 ± 0.42	3.06 ± 0.081	3.1 ± 0.27
0.89 µg/ml, genetic background: wild type	2.87 ± 0.37	2.84 ± 0.27	3.03 ± 0.25	3 ± 0.34	2.82 ± 0.33	3.01 ± 0.25	2.81 ± 0.071	2.86 ± 0.06
0.89 µg/ml, genetic background: ΔmarA	3.01 ± 0.36	3.8 ± 0.059	3.24 ± 0.049	3.01 ± 0.74	2.96 ± 0.9	3.25 ± 0.29	2.71 ± 0.44	2.78 ± 0.19
0.89 µg/ml, genetic background: Δrob	2.64 ± 0.5	2.3 ± 0.35	3.06 ± 0.3	3.08 ± 0.4	2.47 ± 0.32	2.49 ± 0.063	2.49 ± 0.39	2.98 ± 0.068
0.89 µg/ml, genetic background: ΔsoxS	2.71 ± 0.075	2.86 ± 0.32	2.87 ± 0.62	2.56 ± 0.13	2.58 ± 0.044	2.65 ± 0.37	2.76 ± 0.27	2.8 ± 0.27
1.8 µg/ml, genetic background: wild type	2.62 ± 0.2	2.47 ± 0.35	2.56 ± 0.061	2.77 ± 0.3	2.58 ± 0.22	2.71 ± 0.086	2.67 ± 0.12	2.48 ± 0.045
1.8 µg/ml, genetic background: ΔmarA	2.82 ± 0.54	3.83 ± 0.4	2.994 ± 0.025	2.71 ± 0.22	2.799 ± 0.022	3.21 ± 0.34	2.54 ± 0.51	2.59 ± 0.43
1.8 µg/ml, genetic background: Δrob	2.31 ± 0.38	2.14 ± 0.45	2.59 ± 0.28	2.65 ± 0.49	2 ± 0.21	2.07 ± 0.25	2.25 ± 0.53	2.66 ± 0.11
1.8 µg/ml, genetic background: ΔsoxS	2.62 ± 0.091	2.74 ± 0.33	2.58 ± 0.41	2.13 ± 0.11	2.39 ± 0.056	2.83 ± 0.54	2.57 ± 0.26	2.5 ± 0.096
3.6 µg/ml, genetic background: wild type	1.82 ± 0.07	0.425 ± 0.012	1.19 ± 0.21	1.1 ± 0.36	0.463 ± 0.36	0.94 ± 0.01	1.48 ± 0.16	1.64 ± 0.057
3.6 µg/ml, genetic background: ΔmarA	1.75 ± 0.37	1.29 ± 0.62	1.33 ± 0.41	1.69 ± 0.65	0.964 ± 0.41	2.1 ± 0.66	1.01 ± 0.025	1.75 ± 0.28
3.6 µg/ml, genetic background: Δrob	1.52 ± 0.12	0.125 ± 0.11	0.719 ± 0.26	1.52 ± 0.1	0.305 ± 0.31	0.0968 ± 0.051	0.926 ± 0.32	1.92 ± 0.082
3.6 µg/ml, genetic background: ΔsoxS	1.63 ± 0.2	0.505 ± 0.32	0.35 ± 0.21	0.623 ± 0.57	0.184 ± 0.24	0.552 ± 0.0053	1.32 ± 0.014	1.65 ± 0.24

NC[C@H](O)c1ccc(O)c(O)c1 [Noradrenalin]
growth
Conditions	reporter plasmid: EVC	reporter plasmid: acrABp	reporter plasmid: marRABp	reporter plasmid: micFp	reporter plasmid: ompFp	reporter plasmid: robp	reporter plasmid: soxSp	reporter plasmid: tolCp
20 µg/ml, genetic background: wild type	3.04 ± 0.31	2.77 ± 0.23	2.93 ± 0.0031	3.09 ± 0.27	2.83 ± 0.32	3.023 ± 0.019	3.18 ± 0.094	3.23 ± 0.12
20 µg/ml, genetic background: ΔmarA	3 ± 0.32	3.69 ± 0.14	3.16 ± 0.09	3.25 ± 0.76	3.08 ± 1	3.23 ± 0.27	2.96 ± 0.53	2.8 ± 0.35
20 µg/ml, genetic background: Δrob	3.11 ± 0.46	2.57 ± 0.17	3.15 ± 0.45	3.15 ± 0.4	2.36 ± 0.51	2.44 ± 0.17	2.91 ± 0.27	3.23 ± 0.14
20 µg/ml, genetic background: ΔsoxS	3.22 ± 0.15	3.16 ± 0.14	2.9 ± 0.64	2.94 ± 0.37	2.908 ± 0.0031	2.78 ± 0.44	3.14 ± 0.12	3.28 ± 0.35
39.9 µg/ml, genetic background: wild type	2.89 ± 0.33	2.79 ± 0.45	2.93 ± 0.2	3.18 ± 0.2	2.71 ± 0.25	3 ± 0.18	3.06 ± 0.18	3.248 ± 0.0088
39.9 µg/ml, genetic background: ΔmarA	3 ± 0.38	3.6532 ± 0.0025	3.119 ± 0.013	3.09 ± 0.7	3.17 ± 0.78	3.3 ± 0.21	2.99 ± 0.48	2.85 ± 0.31
39.9 µg/ml, genetic background: Δrob	2.86 ± 0.69	2.39 ± 0.19	3.15 ± 0.69	3.06 ± 0.41	2.35 ± 0.39	2.47 ± 0.41	2.84 ± 0.27	3.18 ± 0.24
39.9 µg/ml, genetic background: ΔsoxS	3.03 ± 0.12	2.94 ± 0.0097	2.79 ± 0.56	2.8 ± 0.2	2.82 ± 0.05	2.77 ± 0.36	2.92 ± 0.064	3.1 ± 0.34
79.8 µg/ml, genetic background: wild type	3.01 ± 0.24	2.72 ± 0.24	3.08 ± 0.048	3.184 ± 0.019	2.739 ± 0.025	2.94 ± 0.38	3.16 ± 0.033	3.022 ± 0.0042
79.8 µg/ml, genetic background: ΔmarA	3.02 ± 0.52	3.87 ± 0.51	3.24 ± 0.22	3.15 ± 0.8	3.26 ± 0.67	3.52 ± 0.41	2.86 ± 0.35	2.93 ± 0.23
79.8 µg/ml, genetic background: Δrob	3.01 ± 0.67	2.5 ± 0.37	3.16 ± 0.16	2.92 ± 0.48	2.49 ± 0.38	2.56 ± 0.062	2.77 ± 0.28	3.14 ± 0.28
79.8 µg/ml, genetic background: ΔsoxS	3.21 ± 0.11	3.37 ± 0.076	2.85 ± 0.33	2.76 ± 0.12	3.09 ± 0.096	3.19 ± 0.41	3.19 ± 0.11	3.11 ± 0.31
159.6 µg/ml, genetic background: wild type	2.85 ± 0.28	2.59 ± 0.43	2.88 ± 0.12	2.84 ± 0.23	2.53 ± 0.29	2.86 ± 0.035	2.81 ± 0.12	2.89 ± 0.24
159.6 µg/ml, genetic background: ΔmarA	2.85 ± 0.6	3.37 ± 0.73	3.22 ± 0.22	2.96 ± 0.79	2.87 ± 0.69	3.41 ± 0.46	2.6 ± 0.28	2.62 ± 0.31
159.6 µg/ml, genetic background: Δrob	2.73 ± 0.72	2.1 ± 0.53	3.01 ± 0.59	2.94 ± 0.36	2.37 ± 0.18	2.34 ± 0.18	2.67 ± 0.069	2.94 ± 0.46
159.6 µg/ml, genetic background: ΔsoxS	2.9588 ± 0.0026	2.62 ± 0.066	2.75 ± 0.47	2.27 ± 0.34	2.49 ± 0.094	2.6 ± 0.37	2.74 ± 0.22	2.91 ± 0.38

Cc1onc(-c2ccccc2)c1C(=O)N[C@@H]1C(=O)N2[C@@H]1SC(C)(C)[C@@H]2C(=O)O [Oxacillin]
growth
Conditions	reporter plasmid: EVC	reporter plasmid: acrABp	reporter plasmid: marRABp	reporter plasmid: micFp	reporter plasmid: ompFp	reporter plasmid: robp	reporter plasmid: soxSp	reporter plasmid: tolCp
0.53 µg/ml, genetic background: wild type	3.08 ± 0.43	3.04 ± 0.45	3.21 ± 0.13	3.13 ± 0.44	3 ± 0.48	3.28 ± 0.2	3.218 ± 0.027	3.311 ± 0.0066
0.53 µg/ml, genetic background: ΔmarA	3.09 ± 0.39	4.16 ± 0.12	3.46 ± 0.18	3.12 ± 0.66	3.19 ± 0.91	3.49 ± 0.29	2.87 ± 0.59	2.84 ± 0.24
0.53 µg/ml, genetic background: Δrob	3.04 ± 0.56	3.09 ± 0.11	3.42 ± 0.4	3.01 ± 0.44	2.32 ± 0.72	2.76 ± 0.22	3.1 ± 0.23	3.22 ± 0.17
0.53 µg/ml, genetic background: ΔsoxS	3.33 ± 0.16	3.24 ± 0.23	3.07 ± 0.64	2.98 ± 0.17	3.09 ± 0.12	3.12 ± 0.17	3.15 ± 0.16	3.2 ± 0.36
1.1 µg/ml, genetic background: wild type	2.96 ± 0.48	3.02 ± 0.51	3.1 ± 0.21	3.19 ± 0.15	3.12 ± 0.65	3.27 ± 0.37	3.115 ± 0.018	3.26 ± 0.077
1.1 µg/ml, genetic background: ΔmarA	3.04 ± 0.45	3.93 ± 0.13	3.36 ± 0.34	3.22 ± 0.76	3.29 ± 1.1	3.42 ± 0.41	2.9 ± 0.66	2.94 ± 0.33
1.1 µg/ml, genetic background: Δrob	3.06 ± 0.53	2.71 ± 0.12	3.29 ± 0.57	3.07 ± 0.71	2.24 ± 0.79	2.64 ± 0.28	3.05 ± 0.21	3.19 ± 0.17
1.1 µg/ml, genetic background: ΔsoxS	3.19 ± 0.13	2.95 ± 0.051	2.91 ± 0.45	3.09 ± 0.22	2.94 ± 0.17	2.97 ± 0.3	3 ± 0.048	3.05 ± 0.46
2.1 µg/ml, genetic background: wild type	3.17 ± 0.3	2.99 ± 0.55	3.41 ± 0.23	3.26 ± 0.076	3.26 ± 0.23	3.38 ± 0.06	3.17 ± 0.09	3.257 ± 0.0095
2.1 µg/ml, genetic background: ΔmarA	3 ± 0.35	4.27 ± 0.44	3.584 ± 0.027	3.25 ± 0.61	3.49 ± 0.68	3.89 ± 0.16	2.85 ± 0.4	3.01 ± 0.35
2.1 µg/ml, genetic background: Δrob	3.07 ± 0.49	3.21 ± 0.12	3.54 ± 0.32	3.05 ± 0.52	2.71 ± 0.41	2.86 ± 0.26	2.96 ± 0.16	3.47 ± 0.21
2.1 µg/ml, genetic background: ΔsoxS	3.27 ± 0.21	3.25 ± 0.53	3.33 ± 0.76	3.07 ± 0.15	3.21 ± 0.042	3.37 ± 0.3	3.22 ± 0.15	3.32 ± 0.23
4.2 µg/ml, genetic background: wild type	3 ± 0.45	2.62 ± 0.25	3.02 ± 0.032	3.1 ± 0.042	3.14 ± 0.57	3.13 ± 0.23	3.07 ± 0.082	3.2 ± 0.18
4.2 µg/ml, genetic background: ΔmarA	2.88 ± 0.62	3.5 ± 0.071	3.23 ± 0.26	3.02 ± 0.85	3.13 ± 1.2	3.11 ± 0.25	2.7 ± 0.5	2.79 ± 0.38
4.2 µg/ml, genetic background: Δrob	3.1 ± 0.48	2.58 ± 0.25	3.19 ± 0.26	2.84 ± 0.63	2.47 ± 0.066	2.65 ± 0.14	2.94 ± 0.51	3.22 ± 0.17
4.2 µg/ml, genetic background: ΔsoxS	3.26 ± 0.17	2.86 ± 0.34	2.78 ± 0.4	2.74 ± 0.05	2.9 ± 0.31	2.94 ± 0.28	2.88 ± 0.16	3.008 ± 0.012
